In paper PMC5589800:
No constants are given. Whether binding was seen depends on the method and setting. In cells and extracts the contact can be indirect. A result given as binding can be weak or reduced; the word gives no strength.

Amino acid sequences for entries named in this document (tags omitted). A change or cut given only in a name is not applied to a line headed by its entry. Residues count along the entry.
UniProt Q9D5V5: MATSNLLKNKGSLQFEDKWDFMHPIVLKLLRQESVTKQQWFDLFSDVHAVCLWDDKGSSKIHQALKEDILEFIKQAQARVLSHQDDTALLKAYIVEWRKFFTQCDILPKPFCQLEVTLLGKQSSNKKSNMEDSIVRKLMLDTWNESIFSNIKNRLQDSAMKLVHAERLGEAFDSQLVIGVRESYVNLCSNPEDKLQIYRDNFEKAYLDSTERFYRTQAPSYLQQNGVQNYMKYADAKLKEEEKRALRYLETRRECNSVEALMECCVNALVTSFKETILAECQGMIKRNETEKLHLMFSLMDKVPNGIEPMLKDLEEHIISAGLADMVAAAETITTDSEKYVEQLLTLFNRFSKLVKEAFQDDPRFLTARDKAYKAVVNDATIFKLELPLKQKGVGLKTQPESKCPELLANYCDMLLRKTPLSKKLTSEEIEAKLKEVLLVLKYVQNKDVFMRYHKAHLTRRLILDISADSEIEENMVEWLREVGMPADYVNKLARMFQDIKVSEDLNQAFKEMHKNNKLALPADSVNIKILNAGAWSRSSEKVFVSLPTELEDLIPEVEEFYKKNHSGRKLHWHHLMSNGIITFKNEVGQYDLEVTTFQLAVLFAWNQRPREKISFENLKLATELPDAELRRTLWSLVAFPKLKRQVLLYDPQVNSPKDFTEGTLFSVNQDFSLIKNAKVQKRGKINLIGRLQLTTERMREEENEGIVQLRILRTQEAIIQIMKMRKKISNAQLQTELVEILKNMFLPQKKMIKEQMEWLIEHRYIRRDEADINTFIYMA
UniProt P29317, residues 24-976: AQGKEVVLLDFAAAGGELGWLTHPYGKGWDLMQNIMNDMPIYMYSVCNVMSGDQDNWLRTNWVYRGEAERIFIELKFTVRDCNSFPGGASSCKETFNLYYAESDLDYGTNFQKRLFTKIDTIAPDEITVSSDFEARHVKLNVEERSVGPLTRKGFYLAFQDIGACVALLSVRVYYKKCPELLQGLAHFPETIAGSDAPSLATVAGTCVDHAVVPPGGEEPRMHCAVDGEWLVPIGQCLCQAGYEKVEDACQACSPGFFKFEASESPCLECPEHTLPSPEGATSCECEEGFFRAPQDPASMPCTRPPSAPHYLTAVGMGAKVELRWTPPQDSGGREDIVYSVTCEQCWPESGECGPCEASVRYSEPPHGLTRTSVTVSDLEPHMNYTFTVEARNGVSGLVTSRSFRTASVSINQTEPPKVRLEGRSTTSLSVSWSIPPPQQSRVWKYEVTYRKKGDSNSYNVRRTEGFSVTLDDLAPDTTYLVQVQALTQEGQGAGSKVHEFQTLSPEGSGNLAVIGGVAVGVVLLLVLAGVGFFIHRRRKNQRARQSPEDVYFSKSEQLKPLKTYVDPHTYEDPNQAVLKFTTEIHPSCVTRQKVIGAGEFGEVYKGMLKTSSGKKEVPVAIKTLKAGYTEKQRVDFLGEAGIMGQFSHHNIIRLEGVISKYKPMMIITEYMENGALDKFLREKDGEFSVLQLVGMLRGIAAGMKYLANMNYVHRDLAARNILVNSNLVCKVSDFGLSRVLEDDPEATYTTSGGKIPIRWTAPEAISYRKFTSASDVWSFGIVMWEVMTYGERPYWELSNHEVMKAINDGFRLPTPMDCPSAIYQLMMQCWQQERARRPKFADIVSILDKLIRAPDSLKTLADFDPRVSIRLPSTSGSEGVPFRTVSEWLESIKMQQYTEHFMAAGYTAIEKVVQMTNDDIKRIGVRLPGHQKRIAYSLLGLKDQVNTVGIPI

Target: T7-mCul5^K799R (mouse) (UniProt Q9D5V5)
Assay: co-IP; anti-T7 antibody and protein A/G beads from transiently transfected HeLa lysate (1% Triton X-100 buffer); cells (also Cul5-depleted or EphA2-depleted) treated with 75 µM vanadate (with or without 1 µM MLN4924) for 24 hr or 1 mM pervanadate for 30 min; in one panel DMSO, 1 µM SU6656 or 200 nM Dasatinib for 2 hr before pervanadate (Dasatinib inhibited, SU6656 did not)

binding: binds
Substance: Igk–Myc hEphA2 WT (from UniProt P29317 24-976) (receptor)
